Results from paper PMC10895266, “The structure of the Caenorhabditis elegans TMC-2 complex suggests roles of lipid-mediated subunit contacts in mechanosensory transduction” (Proceedings of the National Academy of Sciences of the …, 2024).

T1: TMC-2 (transmembrane channel-like protein 2), native, tagged with mVenus-3xFLAG at the endogenous locus (C. elegans) (UniProt Q11069)
T1 sequence (chain, N-glycans at N225 and N748): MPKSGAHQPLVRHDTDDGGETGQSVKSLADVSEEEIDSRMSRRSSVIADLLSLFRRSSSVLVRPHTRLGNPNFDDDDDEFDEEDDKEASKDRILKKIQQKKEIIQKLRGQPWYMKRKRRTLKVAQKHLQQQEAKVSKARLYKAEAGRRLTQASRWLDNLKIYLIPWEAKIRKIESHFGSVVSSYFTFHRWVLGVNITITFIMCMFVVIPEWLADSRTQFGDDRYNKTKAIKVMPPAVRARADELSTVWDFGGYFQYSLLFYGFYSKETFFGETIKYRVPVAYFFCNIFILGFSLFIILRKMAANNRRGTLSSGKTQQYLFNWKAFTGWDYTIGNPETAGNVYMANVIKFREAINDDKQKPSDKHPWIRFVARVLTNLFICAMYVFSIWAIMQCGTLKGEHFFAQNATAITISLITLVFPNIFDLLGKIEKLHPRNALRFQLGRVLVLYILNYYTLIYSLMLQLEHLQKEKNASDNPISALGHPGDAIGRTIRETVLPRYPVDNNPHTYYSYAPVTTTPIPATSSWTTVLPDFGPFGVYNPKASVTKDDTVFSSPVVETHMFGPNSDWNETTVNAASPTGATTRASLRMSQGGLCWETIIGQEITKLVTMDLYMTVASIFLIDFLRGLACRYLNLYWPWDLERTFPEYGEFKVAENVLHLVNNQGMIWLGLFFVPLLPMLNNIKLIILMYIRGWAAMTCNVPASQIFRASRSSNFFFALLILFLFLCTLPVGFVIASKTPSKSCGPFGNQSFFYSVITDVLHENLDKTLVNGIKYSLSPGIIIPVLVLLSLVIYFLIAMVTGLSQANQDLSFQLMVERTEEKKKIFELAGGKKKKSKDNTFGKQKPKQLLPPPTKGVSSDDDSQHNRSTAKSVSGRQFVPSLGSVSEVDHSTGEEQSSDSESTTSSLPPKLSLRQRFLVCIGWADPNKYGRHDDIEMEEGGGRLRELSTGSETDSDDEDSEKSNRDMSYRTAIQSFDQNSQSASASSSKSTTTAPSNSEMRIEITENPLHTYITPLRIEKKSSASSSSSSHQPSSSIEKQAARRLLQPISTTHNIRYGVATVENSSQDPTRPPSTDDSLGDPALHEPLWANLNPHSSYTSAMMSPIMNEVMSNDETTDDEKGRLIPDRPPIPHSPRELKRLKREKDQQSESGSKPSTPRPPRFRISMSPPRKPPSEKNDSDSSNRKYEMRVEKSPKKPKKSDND

B1: TMC-1 (transmembrane channel-like protein 1) (protein, UniProt D3KZG3 1-1285)
chain: MQEAARRASLRKEHTPTNEKFGDLSKQDSLGERASSKLTLDDELYDILYAFGETDAFINKGDKQRETDEDGNPLTRQALLERIRQKKEVIGKLRCQAWSMTRKRRTLKLAQKYLEQHESKVSRSHLYMEEMRKRARLMKRSFSNFKTYLIPWESKIKRIESHFGSVVSSYFTFLRWIVFVNIMITLIALVFVVLPETLADSVANEGRFNRTKTRKQIPANERVHADELAVVWHYDGYLRYSPLFYGYYSDDPFLGNKIKYALPLAYFMVTLTIFAYSFFAILRKMAANARMSKLSGSKAEQYIFNWKLFTGWDYTIGNSETASNTVMAVVIKLRESIADIKKDAHGKFRLLQFSLRVFANIIICAMLGFSIYCIIFAVQKSQVQDDGNLFTKNQVPSVVSTITHVFPMIFDLIGKMENYHPRTALRAHLGRVLILYTVNYITLIFALFEKMTALRDRVNSTSTSSSHRTKRQQGGWNPNMQRPPPYASRAEVRQMSDFLAANTRRFQTVSQRTTRSVTTPFTVAPQFGPFNVNNPNAVFHNGTHSTSFESQILGPKALPIFTPPPRKYPGFTPGNVGQQFGGPDFPRNQVYTKSTPLPRVRTKPPWVYTTTHPPLVQNRAMTTTMSKSAKKGNSKNLDDDILLSNETIQMSEAALRRNHDGHNNDICWETIIGQEIVKLVTMDLIFTILSILVIDLFRGLWIKYCSSWWCWDIETTFPEYGEFKVAENVLHIINNQGMIWLGLFFAPLLPAINNIKLIILMYIRGWAVMTCNVPAREIFRASRSSNFYLGILLIWLLLCTLPVGFVIASMSPSRSCGPFARYQHFYTVVTREIEKRVDQTVLSYIRHIASPGVVIPIILFLILIIYFLFSLVRGLREANTDLQAQLVHERTEEKKKIFELAGGKKNKFEKDRDKKRSNDYIPLIEQRRREPWRQYHEMEADHALASDSSEESDINEDEDDERQPLTAYPLRAIETPPETLQVTAFHPSLGSLIENREMEDEESASGDQLPMIHKSVSFQGPSHMQMRQSISTESCSQISRSAIQVATPEEIRALLRPYLEAKYGIPYQHGIKSFPIDVHTPPNNTPSRRSSKYNSFVSLYEHTRDDHKNFVASTIKETDEDPGKSDKKQTSSKDVAPDFMPWPSADEARALREKMKSKTPLMLTKTTVEEKPKGGKSSESEFRPPVPIHRKYNIQTTEEENEEEETDSAPESSKKRFRISVSPTKTIAPASASRAQHKIVSQASSSSSIPHGRQPDPNKKASLVLPPLRAPRVQFDEDDSPRQID

Experiments:
[1] = molecular target: T1, TMC-2 (transmembrane channel-like protein 2), native, tagged with mVenus-3xFLAG at the endogenous locus (C. elegans); assay: affinity purification with mass spectrometry; native TMC-2-mVenus-3xFLAG complex from tmc2::mVenus worms solubilised in 2% GDN, bound to anti-FLAG M2 magnetic resin, eluted with 3C protease, SEC (Superose 6 Increase; 20 mM Tris-Cl pH 8.0, 150 mM NaCl, 0.02% GDN, 1 mM CaCl2); putative dimeric peak analysed by LC-MS/MS
[2] = molecular target: T1, TMC-2 (transmembrane channel-like protein 2), native, tagged with mVenus-3xFLAG at the endogenous locus (C. elegans); assay: as above; remark: listed apart in the source

Molecule | binding [1] | binding [2]
ARRD-6 (arrestin) (C. elegans (endogenous in worms)) | no binding | –
UNC-44, the worm ortholog of mammalian ankyrin (C. elegans (endogenous in worms)) | no binding | –
worm homolog of lipoma HMGIC fusion partner-like 5 (LHFPL5, lhfp-4 in worms) (C. elegans (endogenous in worms)) | no binding | –
worm homolog of protocadherin-15 (PCDH15, cdh-5 in worms) (C. elegans (endogenous in worms)) | no binding | –
B1 | – | no binding

Read-outs that look alike come from different tables or passages of the source. No constants are given. Whether binding was seen depends on the method and setting. Binding seen in cells or lysates may run through a third protein. Here binding means that the protein was enriched with, or labelled near, the bait; the list need not be complete. A no says only that the protein was not detected with the bait. Tags and fused reporters may be left off the sequences shown.
